Values of other authors, collected in patent US6432434B1, “Treatment of and/or prophylaxis against brain and spinal cord injury” (The United States of America as represented by the …, priority 1999, dated 2002).
For at least one compound, name, drawing or mass did not settle the structure.

Tested on: acute spinal cord injury patients
Conditions: steroid received within eight hours of injury; cited from earlier work

For `C[C@H]1C[C@@H]2[C@H]([C@@H](O)C[C@@]3(C)[C@H]2CC[C@]3(O)C(=O)CO)[C@@]2(C)C=CC(=O)C=C12` [methylprednisolone], the “Clinical outcome at 6 months compared with placebo-treated patients” value is listed as “improved”.
